Test results taken from patent publication EP4455293A1.
Results are given in words; binding and its absence hold for the method and conditions named. Some results given as binding are weak or reduced against the parent protein; the word gives no strength.

By UniProt entry, the sequences of proteins in these tests, tags left out. Where a name states a change or a piece, a line headed by the entry shows the natural chain unless it says otherwise.
UniProt P09513: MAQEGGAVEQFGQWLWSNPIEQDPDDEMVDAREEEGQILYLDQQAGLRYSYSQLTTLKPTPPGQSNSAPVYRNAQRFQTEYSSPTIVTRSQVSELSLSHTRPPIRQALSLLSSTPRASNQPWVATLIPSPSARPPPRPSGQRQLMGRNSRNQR

Assays:
[1] = biological target: HvVHA-E (barley V-type proton ATPase subunit E protein) (barley (Hordeum vulgare L.)); assay: yeast two-hybrid (GAL4; bait pGBKT7-BYDV_RTD, prey pGADT7-HvVHA-E), yeast growth
[2] = biological target: HvVHA-E (barley V-type proton ATPase subunit E protein) (barley (Hordeum vulgare L.)); assay: yeast two-hybrid (GAL4; bait pGBKT7-BYDV_MP, prey pGADT7-HvVHA-E), yeast growth

Substance | binding [1] | binding [2]
BYDV RTD protein (from UniProt P09516 202-651) | binds | –
BYDV MP protein (from UniProt P09513 1-152) | – | binds
